In patent publication US10792284B2, “Synergistic cancer treatment” (Memorial Sloan Kettering Cancer Center, priority 2015, dated 2020):
Entries after “also recorded” stand apart in the source; their conditions may differ. At least one compound was matched to its structure with a doubt left.

Experiments:
[1] = test system: KRAS-mutant lung cancer cell lines; test: Clonogenic assay; assay type: cell-based, human; details: ponatinib alone
Description: All experiments were performed at least three times. Representative experiments are shown.

[2] = test system: ERK, AKT, STAT3 and FRS2 phosphorylation in KRAS-mutant lung cancer cell lines; test: Immunoblot of signaling in drug-treated cells
FGFR1 = test: Immunoblot of FGF2-treated serum starved H23 cells; assay type: cell-based, human
[3] = test system: pFRS2, ERK and AKT signaling in JHU-LX55a patient derived xenografts; test: IHC and immunoblot of xenograft tumor tissue; assay type: in vivo, mice; details: 18 days of treatment

Cc1ccc(C(=O)Nc2ccc(CN3CCN(C)CC3)c(C(F)(F)F)c2)cc1C#Cc1cnc2cccnn12 [ponatinib, Ponatinib]
viability of tumor cells, single agent [1]: did not affect the viability of tumor cells
feedback activation of ERK and AKT signaling following MEK inhibition ([2]; added to trametinib-treated cells): prevented feedback activation of ERK and AKT signaling; also recorded: inhibits trametinib-induced reactivation of MAPK and PI3K signaling
levels of pERK, single agent ([2]; ponatinib alone): did not affect the levels of pERK
phosphorylation of FRS2, ERK, and AKT (FGFR1): significantly reduced the phosphorylation of FRS2, ERK, and AKT
pFRS2 levels and ERK and AKT signaling in tumors [3]: prevented
